Laboratory results as given in PMC6987189, “Native aggregation is a common feature among triosephosphate isomerases of different species” (Scientific Reports, 2020).
These are yes or no findings as the source states them, for the method shown.

By UniProt entry, the sequences of proteins in these tests, tags left out.
UniProt Q07412: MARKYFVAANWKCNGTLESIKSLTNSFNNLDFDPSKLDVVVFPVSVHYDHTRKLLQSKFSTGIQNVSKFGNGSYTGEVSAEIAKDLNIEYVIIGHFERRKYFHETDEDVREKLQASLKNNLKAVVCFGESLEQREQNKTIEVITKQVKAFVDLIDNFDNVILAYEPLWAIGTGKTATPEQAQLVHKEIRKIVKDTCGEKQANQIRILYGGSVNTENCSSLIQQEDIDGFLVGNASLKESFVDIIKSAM

Biological target: Plasmodium falciparum triosephosphate isomerase (Plasmodium falciparum) (UniProt Q07412)
Test: condition: only with lithium dodecyl sulphate (concentrations in Figure 4B); native gel or EMSA; BN-PAGE of thirty micrograms of purified TIM loaded with increasing concentrations of lithium dodecyl sulphate (LDS); aggregates to single monomers; both purified

- binding: no binding
Substance: Plasmodium falciparum triosephosphate isomerase (from UniProt Q07412 1-248) (enzyme)
